# In US20260207649A1, “LSD1 INHIBITOR AND PRMT6 INHIBITOR FOR USE IN THE TREATMENT OF A DISEASE ASSOCIATED WITH GAIN-OF-FUNCTION OF ANDROGEN RECEPTOR (AR) AND/OR WITH OVEREXPRESSION OF AN AR COACTIVATOR” (FONDAZIONE TELETHON ETS(30%), priority 2022, published 2026):
# Protein sequences, listed by entry. Tags and fused reporters are not part of them. Lines headed by an entry give the natural chain unless they say otherwise; changes in a name come on top.
# UniProt P10275: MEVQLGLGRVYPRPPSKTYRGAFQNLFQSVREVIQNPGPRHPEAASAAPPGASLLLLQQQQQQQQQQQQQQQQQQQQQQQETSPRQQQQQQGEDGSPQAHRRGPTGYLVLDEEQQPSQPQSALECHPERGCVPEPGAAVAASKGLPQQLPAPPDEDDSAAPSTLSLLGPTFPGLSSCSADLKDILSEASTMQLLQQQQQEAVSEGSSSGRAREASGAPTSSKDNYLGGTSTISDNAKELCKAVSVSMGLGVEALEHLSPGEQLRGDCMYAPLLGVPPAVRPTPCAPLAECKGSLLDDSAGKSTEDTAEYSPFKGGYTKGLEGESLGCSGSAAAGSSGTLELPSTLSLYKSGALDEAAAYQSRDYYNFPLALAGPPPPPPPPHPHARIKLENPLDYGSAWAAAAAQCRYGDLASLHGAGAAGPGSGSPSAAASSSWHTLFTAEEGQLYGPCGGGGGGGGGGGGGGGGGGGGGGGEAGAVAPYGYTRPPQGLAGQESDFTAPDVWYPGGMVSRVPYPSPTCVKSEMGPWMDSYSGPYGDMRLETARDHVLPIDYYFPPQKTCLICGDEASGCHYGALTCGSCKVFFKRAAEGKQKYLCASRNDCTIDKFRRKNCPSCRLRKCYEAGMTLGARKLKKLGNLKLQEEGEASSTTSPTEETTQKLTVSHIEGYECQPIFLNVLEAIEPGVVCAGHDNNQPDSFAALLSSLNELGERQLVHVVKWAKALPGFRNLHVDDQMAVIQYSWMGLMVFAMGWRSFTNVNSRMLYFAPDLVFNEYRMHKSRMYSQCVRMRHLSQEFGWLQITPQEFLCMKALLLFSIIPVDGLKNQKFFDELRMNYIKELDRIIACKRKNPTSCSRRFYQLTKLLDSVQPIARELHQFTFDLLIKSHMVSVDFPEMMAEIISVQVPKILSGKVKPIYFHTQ
# UniProt Q6NZB1: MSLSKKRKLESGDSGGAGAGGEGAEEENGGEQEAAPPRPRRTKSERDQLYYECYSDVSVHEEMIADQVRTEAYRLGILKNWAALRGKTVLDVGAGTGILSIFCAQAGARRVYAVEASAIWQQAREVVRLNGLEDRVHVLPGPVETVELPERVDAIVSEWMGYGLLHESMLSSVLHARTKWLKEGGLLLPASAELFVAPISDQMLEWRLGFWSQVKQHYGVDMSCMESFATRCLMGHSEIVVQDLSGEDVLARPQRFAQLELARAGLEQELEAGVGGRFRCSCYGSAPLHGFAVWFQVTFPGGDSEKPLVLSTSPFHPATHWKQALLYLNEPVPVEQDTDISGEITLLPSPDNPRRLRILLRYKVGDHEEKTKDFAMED
# Results are given in words; binding and its absence hold for the method and conditions named. Binding seen in cells or lysates may run through a third protein. A result given as binding can be weak or reduced; the word gives no strength.
# What was measured:
# [1] = target: AR100Q (human) (UniProt P10275); assay: proximity ligation assay (PLA), MN1 cells, with Lsd1 silencing
# [2] = target: AR100Q (human) (UniProt P10275); assay: proximity ligation assay (PLA), MN1 cells, vehicle or DHT
substance,measurement,setting,value
endogenous PRMT6 (mouse; MN1 cells and quadriceps muscle) (from UniProt Q6NZB1 1-378) (enzyme),binding,[1],binds
same,binding,[2],binds
